Results deposited as PubChem BioAssay AID504791 (Drosophila RNAi Screening Center, 2011).
The deposit covers about 23,000 reagents; shown is an unselected part of those that have a named target and a result. Over the whole deposit, 199 (0.86%) were called active. 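Plate-scaled ratios behind the calls are not deposited; printed light signals are raw; many rows marked increased or decreased are still called inactive.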 A number with no mark means an inactive call. The numbers tell different reagents against one gene apart. A plus sign joins genes that one reagent is predicted to hit.

Assay: 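Factors in Argonaute-based small RNA production and activity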 (primary screen)
Cells: Drosophila S2-derived reporter cells
Reagents: long dsRNA against Drosophila genes, about 150-250 ng dsRNA per well (siRNA assay); about 80-120 ng (miRNA assay)
Time to read-out: about 5 days (siRNA assay); about 4 days (miRNA assay)
Treatment: copper sulfate induction of reporters: 25 µM (siRNA assay); 200 mM stated (miRNA assay), 1-2 days before reading
Measured: 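Per-well ratio of Renilla over firefly light, expressed relative to that plate's average ratio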
Direction: siRNA reporter hit score: higher = 3 marks a strong hit with raised ratio; -3 a strong hit with lowered ratio
Rule for the call: 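First-pass picks had plate-scaled ratios over 1.5 for the siRNA assay, over 1.6 for the miRNA assay, or under 0.6; two distinct dsRNAs had to score alike on retest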

Target gene | dsRNA no. | siRNA reporter hit score | stable siRNA reporter change | miRNA reporter change | stable assay Renilla, run 1 (luminescence) | stable assay firefly, run 1 (luminescence)
CG12773 (GeneID 31082) | 1 | – | – | – | 8275 | 5.29e5
Hers (GeneID 33000) | 1 | – | – | – | 7666 | 4.81e5
Hers (GeneID 33000) | 2 | – | – | – | 5038 | 5.26e5
shd (GeneID 39592) | 1 | – | – | – | 7235 | 3.43e5
Achl (GeneID 36605) | 1 | – | – | – | 5608 | 3.55e5
CG9849 (GeneID 37647) | 1 | – | – | – | 6610 | 4.08e5
Tsf1 (GeneID 32821) | 1 | – | – | – | 5247 | 4.29e5
Obp83cd (GeneID 40746) | 1 | – | – | – | 6430 | 3.84e5
CG31777 (GeneID 261617) | 1 | – | – | – | 5784 | 5.33e5
Tehao (GeneID 34761) | 1 | – | – | – | 7375 | 4.43e5
Sas-4 (GeneID 40859) | 1 | – | – | – | 7012 | 3.74e5
CG1172 (GeneID 40647) | 1 | – | – | – | 6743 | 4.42e5
CG1172 (GeneID 40647) | 2 | – | – | – | 9041 | 5.51e5
sotv + CG10731 | 1 | – | – | – | 6032 | 3.11e5
sotv + CG10731 | 2 | – | – | – | 6583 | 2.67e5
GstD11 (GeneID 41512) | 1 | – | – | – | 6292 | 4.05e5
PGAP5 (GeneID 34116) | 1 | – | – | – | 8688 | 5.51e5
CG32444 (GeneID 40406) | 1 | – | – | – | 8693 | 3.29e5
Obp19d (GeneID 33040) | 1 | – | – | – | 6852 | 4.74e5
CG15209 (GeneID 32011) | 1 | – | – | – | 5850 | 5.22e5
Pkc98E (GeneID 43428) | 1 | – | – | – | 7889 | 4.58e5
Pkc98E (GeneID 43428) | 2 | – | – | reporter ratio lowered past the hit cutoff | – | –
Proc-R (GeneID 31408) | 1 | – | – | – | 5315 | 2.53e5
Lcp2 (GeneID 35818) | 1 | – | – | – | 7506 | 4.99e5
Cpr50Cb (GeneID 36525) | 1 | – | – | – | 5716 | 2.70e5
mbc (GeneID 42817) | 1 | – | – | – | 4871 | 3.46e5
alpha4GT1 (GeneID 33512) | 1 | – | – | – | 16387 | 3.60e5
CG13801 (GeneID 38299) | 1 | – | – | – | 6574 | 4.50e5
Doc3 (GeneID 39036) | 1 | – | – | – | 6575 | 3.92e5
atlas (GeneID 37689) | 1 | – | – | – | 6911 | 5.10e5
CG13204 (GeneID 36227) | 1 | – | – | – | 6454 | 3.24e5
slp1 (GeneID 33607) | 1 | – | – | – | 1.05e5 | 1.37e5
Pdfr (GeneID 31234) | 1 | – | – | – | 5502 | 3.21e5
Adgf-A2 (GeneID 64879) | 1 | – | – | – | 4371 | 3.06e5
CG5645 (GeneID 39382) | 1 | – | – | – | 8919 | 6.26e5
Decay (GeneID 42008) | 1 | – | – | – | 8754 | 5.50e5
CG6893 (GeneID 40038) | 1 | – | – | – | 7327 | 3.68e5
Pfdn6 (GeneID 40176) | 1 | – | – | – | 6564 | 3.43e5
betaTub97EF (GeneID 43359) | 1 | – | – | – | 6443 | 4.43e5
betaTub97EF (GeneID 43359) | 2 | – | – | – | 5875 | 4.24e5
betaTub97EF (GeneID 43359) | 3 | – | – | – | 6278 | 4.12e5
CG9826 (GeneID 37625) | 1 | – | – | – | 6904 | 3.80e5

10 entries from above, limited to “stable assay Renilla, run 1 (luminescence)”.
Tsf1 (GeneID 32821) = 5247
Obp83cd (GeneID 40746) = 6430
CG31777 (GeneID 261617) = 5784
Tehao (GeneID 34761) = 7375
Sas-4 (GeneID 40859) = 7012
CG1172 (GeneID 40647) #1 = 6743
CG1172 (GeneID 40647) #2 = 9041
sotv + CG10731 #1 = 6032
sotv + CG10731 #2 = 6583
GstD11 (GeneID 41512) = 6292

Additional reagents follow:
Target gene | dsRNA no. | siRNA reporter hit score | stable siRNA reporter change | miRNA reporter change | stable assay Renilla, run 1 (luminescence) | stable assay firefly, run 1 (luminescence)
Cyp6a13 (GeneID 35837) | 1 | – | – | – | 7665 | 4.69e5
Rab39 (GeneID 31684) | 1 | – | – | – | 6300 | 3.20e5
CG4887 (GeneID 33304) | 1 | – | – | – | 7302 | 3.91e5
CG4887 (GeneID 33304) | 2 | – | – | – | 8979 | 5.31e5
Nadsyn (GeneID 32328) | 1 | – | – | – | 8003 | 5.75e5
Nrg (GeneID 31792) | 1 | – | – | – | 4596 | 4.11e5
Nrg (GeneID 31792) | 2 | – | – | – | 8695 | 6.28e5
CG15818 (GeneID 34019) | 1 | – | – | – | 35409 | 4.69e5
CG30491 (GeneID 35704) | 1 | – | – | – | 8595 | 5.23e5
BicC (GeneID 34946) | 1 | – | – | – | 8477 | 4.94e5
CG14126 (retired record) (GeneID 39350) | 1 | – | – | – | 5751 | 3.42e5
rb (GeneID 31381) | 1 | – | – | – | 6067 | 3.24e5
Ptip (GeneID 39552) | 1 | – | – | – | 6510 | 4.47e5
Ptip (GeneID 39552) | 2 | – | – | – | 4636 | 2.74e5
lace (GeneID 34910) | 1 | – | – | – | 26495 | 1.61e6
CG7702 (GeneID 42242) | 1 | – | – | – | 8695 | 5.24e5
msd1 (GeneID 38155) | 1 | – | – | – | 6307 | 4.29e5
Hmgcl (GeneID 33978) | 1 | – | – | – | 7738 | 4.62e5
GstE6 (GeneID 37111) | 1 | – | – | – | 5084 | 2.47e5
CG10298 (GeneID 40779) | 1 | – | – | – | 6862 | 3.43e5
CG6472 (GeneID 36895) | 1 | – | – | – | 6883 | 4.00e5
Urm1 (GeneID 2768949) | 1 | – | – | – | 4547 | 3.96e5
Trhn (GeneID 38121) | 1 | – | – | – | 11454 | 5.35e5
rsh (GeneID 32253) | 1 | – | – | – | 6020 | 4.77e5
rsh (GeneID 32253) | 2 | – | – | – | 4355 | 3.31e5
Or23a (GeneID 33450) | 1 | – | – | – | 8593 | 4.16e5
Hpd (GeneID 40263) | 1 | – | – | – | 8746 | 3.91e5
Prx6a (GeneID 33493) | 1 | – | – | – | 14313 | 4.16e5
shams (GeneID 43008) | 1 | – | – | – | 5718 | 3.54e5
dpr14 (GeneID 31702) | 1 | – | – | – | 6724 | 3.54e5
CG45067 (GeneID 38371) | 1 | – | – | – | 6138 | 3.89e5
CG14443 (GeneID 31595) | 1 | – | – | – | 5934 | 2.85e5
alphaSnap (GeneID 40233) | 1 | – | reporter ratio raised past the hit cutoff (active) | – | 5920 | 1.36e5
alphaSnap (GeneID 40233) | 2 | – | – | reporter ratio raised past the hit cutoff | – | –
CG31735 (GeneID 318922) | 1 | – | – | – | 5696 | 4.58e5
Ir62a (GeneID 3885628) | 1 | – | – | – | 7207 | 3.29e5
Naa80 (GeneID 41195) | 1 | 3 | – | – | 6111 | 3.55e5
CG6118 (GeneID 41884) | 1 | – | – | – | 5460 | 2.58e5
CG6118 (GeneID 41884) | 2 | – | – | – | 2452 | 2.30e5
tei (GeneID 36521) | 1 | – | – | – | 7272 | 4.32e5
CG32987 (GeneID 318273) | 1 | – | – | – | 10027 | 6.15e5
